Test [1] addresses T1, CLuc-IAA15 (Arabidopsis thaliana) (UniProt Q9C966).
T1 sequence: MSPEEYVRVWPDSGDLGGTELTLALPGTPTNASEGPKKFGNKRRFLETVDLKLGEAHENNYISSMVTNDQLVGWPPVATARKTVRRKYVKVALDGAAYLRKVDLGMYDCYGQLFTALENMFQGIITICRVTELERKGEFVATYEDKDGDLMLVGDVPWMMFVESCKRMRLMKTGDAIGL
The experiment in a line: split reporter; firefly luciferase complementation imaging (LCI) in N. benthamiana leaves; 35S::MPKs-NLuc and 35S::CLuc-IAA15; 3 days after infiltration.

Sequences of proteins named here, by UniProt entry; tags and fusion partners are left off.
UniProt Q39026: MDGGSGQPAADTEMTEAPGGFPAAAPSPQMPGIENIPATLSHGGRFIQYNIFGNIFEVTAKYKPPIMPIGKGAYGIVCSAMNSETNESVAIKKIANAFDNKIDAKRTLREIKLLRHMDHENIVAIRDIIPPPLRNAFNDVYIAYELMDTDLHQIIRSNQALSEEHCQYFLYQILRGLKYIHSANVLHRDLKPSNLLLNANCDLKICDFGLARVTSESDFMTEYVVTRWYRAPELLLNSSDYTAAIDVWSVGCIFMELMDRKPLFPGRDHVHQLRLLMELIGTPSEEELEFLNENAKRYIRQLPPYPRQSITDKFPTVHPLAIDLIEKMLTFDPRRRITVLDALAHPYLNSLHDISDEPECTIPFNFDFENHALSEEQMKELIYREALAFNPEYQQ

The target in test [2] is T2, ARF19 in pAS2-1 (BD-ARF19) (Arabidopsis thaliana) (UniProt Q8RYC8).
T2 sequence: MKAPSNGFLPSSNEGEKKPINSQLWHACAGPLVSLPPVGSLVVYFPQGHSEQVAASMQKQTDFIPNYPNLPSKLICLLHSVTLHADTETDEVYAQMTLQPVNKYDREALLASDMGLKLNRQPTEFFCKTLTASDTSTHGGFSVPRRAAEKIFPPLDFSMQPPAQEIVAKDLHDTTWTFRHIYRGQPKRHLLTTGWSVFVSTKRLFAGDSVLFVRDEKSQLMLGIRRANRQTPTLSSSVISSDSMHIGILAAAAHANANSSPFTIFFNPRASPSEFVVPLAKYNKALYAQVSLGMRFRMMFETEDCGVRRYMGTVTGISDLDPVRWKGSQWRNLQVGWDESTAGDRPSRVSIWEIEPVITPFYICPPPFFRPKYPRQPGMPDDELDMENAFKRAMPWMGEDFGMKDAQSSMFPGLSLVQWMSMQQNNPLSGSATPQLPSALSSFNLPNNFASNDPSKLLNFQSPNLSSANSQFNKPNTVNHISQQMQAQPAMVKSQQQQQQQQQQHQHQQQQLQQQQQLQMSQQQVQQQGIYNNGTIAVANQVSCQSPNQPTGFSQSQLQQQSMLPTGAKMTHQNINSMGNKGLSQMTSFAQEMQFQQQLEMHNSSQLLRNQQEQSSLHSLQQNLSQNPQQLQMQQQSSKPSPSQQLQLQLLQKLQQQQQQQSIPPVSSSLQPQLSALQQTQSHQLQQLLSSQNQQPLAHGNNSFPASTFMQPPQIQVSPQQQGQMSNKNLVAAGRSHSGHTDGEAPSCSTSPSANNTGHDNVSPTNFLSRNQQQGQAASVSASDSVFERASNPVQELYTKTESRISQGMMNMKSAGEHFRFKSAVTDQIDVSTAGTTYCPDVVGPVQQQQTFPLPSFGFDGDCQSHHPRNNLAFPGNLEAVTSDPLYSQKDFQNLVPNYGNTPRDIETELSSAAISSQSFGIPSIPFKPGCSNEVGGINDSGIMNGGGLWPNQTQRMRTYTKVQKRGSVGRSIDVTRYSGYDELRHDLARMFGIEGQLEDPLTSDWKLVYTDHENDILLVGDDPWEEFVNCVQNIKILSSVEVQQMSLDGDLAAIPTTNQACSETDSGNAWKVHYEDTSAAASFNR
The experiment in a line: two-hybrid; IAA15^WT or its mutant with ARF7 and ARF19 (pAS2-1, BD), yeast strain pJ69-4A.

The target of test [3] is T3, ARF7 in pAS2-1 (BD-ARF7) (Arabidopsis thaliana) (UniProt P93022).
T3 sequence: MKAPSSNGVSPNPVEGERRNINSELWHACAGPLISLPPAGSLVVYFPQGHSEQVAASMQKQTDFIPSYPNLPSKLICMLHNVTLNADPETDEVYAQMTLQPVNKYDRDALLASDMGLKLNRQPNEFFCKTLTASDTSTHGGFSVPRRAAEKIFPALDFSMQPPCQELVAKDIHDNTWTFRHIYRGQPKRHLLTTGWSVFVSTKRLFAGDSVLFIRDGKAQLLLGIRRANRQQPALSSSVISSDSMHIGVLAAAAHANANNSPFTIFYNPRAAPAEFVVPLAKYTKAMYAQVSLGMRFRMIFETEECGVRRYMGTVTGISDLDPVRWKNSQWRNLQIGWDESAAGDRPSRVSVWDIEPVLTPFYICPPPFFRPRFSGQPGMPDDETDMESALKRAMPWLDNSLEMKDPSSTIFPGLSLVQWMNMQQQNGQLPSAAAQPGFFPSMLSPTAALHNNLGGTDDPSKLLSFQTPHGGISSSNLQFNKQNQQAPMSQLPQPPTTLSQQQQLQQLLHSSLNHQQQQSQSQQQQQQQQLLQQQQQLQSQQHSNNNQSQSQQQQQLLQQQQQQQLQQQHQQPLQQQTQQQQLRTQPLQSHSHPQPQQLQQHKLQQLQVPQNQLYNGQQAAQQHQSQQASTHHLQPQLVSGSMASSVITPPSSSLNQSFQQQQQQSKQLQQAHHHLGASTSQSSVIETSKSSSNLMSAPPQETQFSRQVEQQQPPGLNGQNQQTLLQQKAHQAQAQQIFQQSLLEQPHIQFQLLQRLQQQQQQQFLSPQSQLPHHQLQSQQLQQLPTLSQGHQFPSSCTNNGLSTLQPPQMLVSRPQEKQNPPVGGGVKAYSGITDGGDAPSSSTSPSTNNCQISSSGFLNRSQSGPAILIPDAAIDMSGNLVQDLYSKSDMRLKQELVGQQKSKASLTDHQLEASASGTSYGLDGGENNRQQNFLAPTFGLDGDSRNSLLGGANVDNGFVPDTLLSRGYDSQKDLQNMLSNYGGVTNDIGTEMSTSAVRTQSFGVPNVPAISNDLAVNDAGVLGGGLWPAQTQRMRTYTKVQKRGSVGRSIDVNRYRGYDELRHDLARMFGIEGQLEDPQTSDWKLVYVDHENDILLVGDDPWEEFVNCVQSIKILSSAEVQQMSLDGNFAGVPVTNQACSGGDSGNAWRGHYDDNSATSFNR
The test is described as above.

Test [4] has as its target T4, MPK3 in pAS2-1 (BD-MPK3) (Arabidopsis thaliana) (UniProt Q39023).
T4 sequence: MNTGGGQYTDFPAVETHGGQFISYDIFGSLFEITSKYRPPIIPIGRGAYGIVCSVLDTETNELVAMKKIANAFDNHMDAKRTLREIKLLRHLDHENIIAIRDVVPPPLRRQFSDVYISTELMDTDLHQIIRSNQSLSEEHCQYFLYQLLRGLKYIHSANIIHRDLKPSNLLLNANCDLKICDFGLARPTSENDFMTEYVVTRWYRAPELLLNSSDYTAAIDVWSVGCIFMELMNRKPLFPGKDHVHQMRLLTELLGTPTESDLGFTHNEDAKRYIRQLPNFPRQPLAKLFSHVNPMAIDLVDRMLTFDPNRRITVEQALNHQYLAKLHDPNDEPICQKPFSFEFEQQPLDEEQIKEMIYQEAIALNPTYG
The experiment in a line: two-hybrid; IAA15 in pGAD424 (AD), MPKs in pAS2-1 (BD), yeast strain pJ69-4A; growth on SD -L/W/H with 20 mM 3-AT (HIS3 reporter).

In test [5] the target is MPK6 in pAS2-1 (BD-MPK6) (Arabidopsis thaliana) (UniProt Q39026). The test is described as above.
Test [6] concerns the target T5, TIR1 in pAS2-1 (BD-TIR1) (Arabidopsis thaliana) (UniProt Q570C0).
T5 sequence: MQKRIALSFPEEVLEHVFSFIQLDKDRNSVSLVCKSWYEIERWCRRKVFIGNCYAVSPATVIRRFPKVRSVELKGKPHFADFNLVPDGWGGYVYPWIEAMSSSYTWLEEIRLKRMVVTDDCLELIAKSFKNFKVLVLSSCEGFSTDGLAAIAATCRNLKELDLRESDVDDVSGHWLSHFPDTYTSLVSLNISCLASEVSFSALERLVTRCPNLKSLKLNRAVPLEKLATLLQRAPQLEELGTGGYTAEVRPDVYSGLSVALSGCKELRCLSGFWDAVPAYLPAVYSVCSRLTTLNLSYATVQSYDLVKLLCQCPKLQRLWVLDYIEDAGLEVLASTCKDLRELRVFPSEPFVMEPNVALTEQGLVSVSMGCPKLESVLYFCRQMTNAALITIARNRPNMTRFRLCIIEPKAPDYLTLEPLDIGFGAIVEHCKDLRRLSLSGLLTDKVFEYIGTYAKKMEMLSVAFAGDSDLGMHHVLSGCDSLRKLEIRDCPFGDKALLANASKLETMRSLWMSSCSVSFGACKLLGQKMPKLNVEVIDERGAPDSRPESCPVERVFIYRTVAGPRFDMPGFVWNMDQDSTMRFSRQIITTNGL
Kind of test: two-hybrid; IAA15^WT or its mutants with TIR1 (pAS2-1, BD); yeast growth and beta-galactosidase assays; in the absence and presence of auxin.

Results are given in words; binding and its absence hold for the method and conditions named. For some assays here: In cells and extracts the contact can be indirect. Some binding calls cover weakened binding; strength is not graded here. Where a sequence is shown, tags or fusion partners need not be part of it.

Turning to “MPK6-NLuc (from UniProt Q39026 1-395) (enzyme)”, in test [1], the binding result is listed as “binds”.

B1: GST-IAA15 (natural protein, Arabidopsis thaliana, UniProt Q9C966 1-179, looked up)
chain: MSPEEYVRVWPDSGDLGGTELTLALPGTPTNASEGPKKFGNKRRFLETVDLKLGEAHENNYISSMVTNDQLVGWPPVATARKTVRRKYVKVALDGAAYLRKVDLGMYDCYGQLFTALENMFQGIITICRVTELERKGEFVATYEDKDGDLMLVGDVPWMMFVESCKRMRLMKTGDAIGL
notes: Auxin-responsive protein IAA15, Arabidopsis thaliana, At1g80390, full length, cloned into pGEX-4T-1; also called GST-fused IAA15; GST-IAA15^WT; source: E. coli BL21 (DE3), purified (glutathione Sepharose-4B); not shown: GST, N-terminal, kept
As to B1, the binding result in test [2], in test [3], in test [4], in test [5] and in test [6] was “binds” each time.

B2: IAA15^DD (phospho-mimicking mutant, yeast two-hybrid construct) (protein, UniProt Q9C966 1-179)
chain: MDPEEYVRVWPDSGDLGGTELTLALPGDPTNASEGPKKFGNKRRFLETVDLKLGEAHENNYISSMVTNDQLVGWPPVATARKTVRRKYVKVALDGAAYLRKVDLGMYDCYGQLFTALENMFQGIITICRVTELERKGEFVATYEDKDGDLMLVGDVPWMMFVESCKRMRLMKTGDAIGL
In the case of B2, the binding entry in test [6] is “binds”.

B3: MPK3-NLuc (enzyme, UniProt Q39023 1-370)
chain: MNTGGGQYTDFPAVETHGGQFISYDIFGSLFEITSKYRPPIIPIGRGAYGIVCSVLDTETNELVAMKKIANAFDNHMDAKRTLREIKLLRHLDHENIIAIRDVVPPPLRRQFSDVYISTELMDTDLHQIIRSNQSLSEEHCQYFLYQLLRGLKYIHSANIIHRDLKPSNLLLNANCDLKICDFGLARPTSENDFMTEYVVTRWYRAPELLLNSSDYTAAIDVWSVGCIFMELMNRKPLFPGKDHVHQMRLLTELLGTPTESDLGFTHNEDAKRYIRQLPNFPRQPLAKLFSHVNPMAIDLVDRMLTFDPNRRITVEQALNHQYLAKLHDPNDEPICQKPFSFEFEQQPLDEEQIKEMIYQEAIALNPTYG
In the case of B3, in test [1], the binding result is “binds”.

The record behind these values is PMC9561270, “Phosphorylation of the auxin signaling transcriptional repressor IAA15 by MPKs is required for the suppression of root development under drought stress in Arabidopsis” (Nucleic Acids Research, 2022).
